Where “and” joins values, the source holds several entries; their conditions need not be identical. Identical values can stand only once. Counter-ions that a name gives are not always drawn. The list shows a part of the results. This data set is noisy: repeats of one test often differ as much as different tests do.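 Human kidney-derived cells stably carry a construct in which eight TEAD-binding elements drive luciferase, measured by luminescence in a drug-repurposing library screen. A hit is any compound whose signal exceeds the plate mean by more than five robust Z scores.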
Tested on: HEK293A TEAD-LUC reporter
Assay: TEAD-luciferase reporter activity (YAP activation), robust Z score vs plate; higher = stronger YAP/TEAD activation
Details: 24 h

Row | SMILES | TEAD-luciferase reporter activity (compound concentration: 200 nM) | TEAD-luciferase reporter activity (compound concentration: 2 uM) | TEAD-luciferase reporter activity (compound concentration: 10 uM)
1 | COC(=O)Nc1cccc(-c2ccc(N3C[C@H](CNC(C)=O)OC3=O)cc2F)c1 | inactive: -0.367 | inactive: 2.26 | inactive: 4.05
2 | Cc1cc(NC(=O)NS(=O)(=O)c2ccccc2)ccc1C(C)C | inactive: -0.653 | inactive: -1.5 | active: 5.85
3 | COc1cc2c(cc1C(=O)N1CCC(Cc3ccc(F)cc3)CC1)c(C(=O)C(=O)N(C)C)cn2C | inactive: 0.93 | inactive: -2.68 | inactive: -0.938
4 | CNc1ncc2cc(-c3cc(NC(=O)NCCC(C)(C)C)c(F)cc3C)c(C)nc2n1 | inactive: -1.12 | inactive: -2.33 | inactive: 0.419
5 | CC(=O)N1CCCN(c2nc3ncccc3o2)CC1 | inactive: -1.43 |  | inactive: 2.44
6 | CC(C)(C)NCC(O)COc1ccccc1C(=O)CCc1ccccc1 (stereo not given) | inactive: -0.666 | inactive: 0.549 | inactive: 2.23
7 | CCS(=O)(=O)c1cccc(-c2cc(C(=O)NC3CCN(C)CC3)c(C)c3[nH]c4ncc(C)cc4c23)c1 | inactive: -0.0816 | inactive: -1.8 | inactive: -0.618
8 | Cc1ccc(O)c(C(=O)N[C@H]2CC[C@@H](NC(=O)c3cc(F)cnc3Oc3ccc(F)c(F)c3)CC2)c1 | inactive: -1.4 | inactive: -0.69 | active: 9.51
9 | Cc1ccc(Nc2nccs2)c(O)c1 [icodulinium hydrochloride] | inactive: 0.155 | inactive: -0.103 | inactive: -0.238
10 | CC1(CN2CCC(n3c(O)nc4ccccc43)CC2)OCc2ccccc2-n2cccc21 (stereo not given) | inactive: -0.702 |  | inactive: 1.53
11 | COc1ccc(CCNCC(O)COc2cc(C)ccc2Cl)cc1OC (stereo not given) | inactive: -1.43 | inactive: -0.94 | inactive: -0.747
12 | Cc1ncc(COP(=O)(O)O)c(C=O)c1O [Pyridoxal phosphate] | inactive: -1.98 | inactive: -1.48 | inactive: 0.612
13 | c1ccc(Oc2nncc3ccccc23)cc1 | inactive: -0.163 | inactive: 1.82 | inactive: 3.59
14 | CCOC(=O)[C@@H]1O[C@H]1C(=O)N[C@@H](CC(C)C)C(=O)N1CCN(Cc2ccc(OC)c(OC)c2OC)CC1 | inactive: -2.17 | inactive: 0.426 | inactive: -0.996
15 | O=C1NCC2(CCN(CCc3ccccc3)CC2)O1 [Fenspiride HCl] | inactive: -0.455 |  | inactive: -0.689
16 | O=C1NCC2(CCN(CCc3ccccc3)CC2)O1 [decasilate] |  | inactive: -0.997 | 
17 | NCCCC(O)(P(=O)(O)O)P(=O)(O)O [alendronate sodium iv] |  | inactive: -0.449 | 
18 | NCCCC(O)(P(=O)(O)O)P(=O)(O)O [alendronate sodium iv, Teijin] | active: 9.52 |  | inactive: 2.55
19 | CCN1CCCC(OC(=O)C(c2ccccc2)c2ccccc2)C1 (stereo not given) | inactive: -2.26 | inactive: 0.56 | inactive: 0.218

Row | SMILES | TEAD-luciferase reporter activity (compound concentration: 200 nM) | TEAD-luciferase reporter activity (compound concentration: 2 uM) | TEAD-luciferase reporter activity (compound concentration: 10 uM)
20 | Cc1cc2ncc(C(=O)NC3CCCCC3)cn2n1 | inactive: -2.73 |  | inactive: -0.0995
21 | CO/N=C1\C[C@@H](C(=O)NC[C@@H](O)c2ccccc2)N(C(=O)c2ccc(-c3ccccc3C)cc2)C1 | inactive: 0.182 | inactive: -1.28 | inactive: 1.61
22 | OC[C@H]1O[C@@H](n2cnc3c(N[C@H]4CCC[C@@H]4O)ncnc32)[C@@H](O)[C@@H]1O | inactive: -0.0963 | inactive: -1.2 | active: 5.06
23 | COc1cc([C@@H]2c3cc4c(cc3[C@@H](O[C@@H]3O[C@@H]5CO[C@@H](c6cccs6)O[C@H]5[C@H](O)[C@H]3O)[C@H]3COC(=O)[C@H]23)OCO4)cc(OC)c1O [teniposide] | inactive: -1.01 | inactive: -1.19 | inactive: -0.599
24 | CCNC(=O)Nc1cccc([C@@H](Cc2ccncc2)c2ccc(OC)c(OC3CCCC3)c2)c1 | inactive: -1.41 | inactive: -1.52 and inactive: -2.21 | inactive: 0.995
25 | COc1ccc(OC(=O)N(CC(=O)O)Cc2ccc(OCCc3nc(-c4ccccc4)oc3C)cc2)cc1 [Muraglitazar] | inactive: -1.03 | inactive: -0.949 | inactive: 2.15
26 | CC(C)CN(C[C@@H](O)[C@H](Cc1ccccc1)NC(=O)O[C@H]1CCOC1)S(=O)(=O)c1ccc(N)cc1 [Amprenavir] | inactive: -0.614 |  | inactive: 2.36
27 | CC(C)CN(C[C@@H](O)[C@H](Cc1ccccc1)NC(=O)O[C@H]1CCOC1)S(=O)(=O)c1ccc(N)cc1 [amprenavir] |  | inactive: 0.409 | 
28 | Cn1c(=O)c2c(ncn2CCN2CCC(C(=O)c3ccc(F)cc3)CC2)n(C)c1=O | inactive: -1.61 | inactive: -0.0733 | inactive: 0.856
29 | O=C(c1ccc(Cl)cc1)N1CC2(CCN(C3CCCCC3)CC2)Cc2ccccc21 | inactive: 4.47 |  | inactive: 3.51
30 | CCCCCCCCN=c1ccn(CCCCCCCC)cc1 | inactive: -2.02 | inactive: -0.996 | inactive: -1.84
31 | COc1cc(CC2c3cc(OC)c(OC)cc3CC[NH+]2C)c(Oc2cc3c(cc2OC)-c2c(OC)c(OC)cc4c2C(C3)[NH+](C)CC4)cc1OC (stereo not given) [Thalicarpine] | inactive: -2.06 | inactive: -2.31 | inactive: -1.26
32 | CCCCCCOC(=O)C1(O)CC2OC1(C)n1c3ccccc3c3c4c(c5c6ccccc6n2c5c31)C(=O)NC4 (stereo not given) | inactive: -0.759 | active: 6.53 | inactive: 1.75
33 | COc1ccc2nc([S+]([O-])Cc3nccc(N4CCOCC4)c3Cl)[nH]c2c1 (stereo not given) | inactive: -0.394 | inactive: 0.725 | inactive: -1.39
34 | COc1c(N2CCC(CN)(CF)C2)c(F)cc2c(=O)c(C(=O)O)cn(C3CC3)c12 (stereo not given) | inactive: -0.476 | inactive: -0.354 | inactive: 0.0529
35 | CC(C)C(=O)N1Cc2ccccc2CC2(CCCCN2CC2CCNC2)C1 (stereo not given) | inactive: -2.05 |  | inactive: 0.091
36 | CC(C)(C)OC(=O)N1CCCC1CO (stereo not given) | inactive: -1.43 | inactive: 1.09 | inactive: -1.29
37 | CCn1cc(C(=O)O)c(=O)c2ccc(C)nc21 | inactive: 0.376 |  | inactive: -2.15
38 | CCn1cc(C(=O)O)c(=O)c2ccc(C)nc21 [Nalidixic acid] |  | inactive: -1.35 | 

Row | SMILES | TEAD-luciferase reporter activity (compound concentration: 200 nM) | TEAD-luciferase reporter activity (compound concentration: 2 uM) | TEAD-luciferase reporter activity (compound concentration: 10 uM)
39 | N#Cc1cn(-c2ccc(C(=O)O)c(O)c2)c2cc(F)c(F)cc12 | inactive: -1.03 | inactive: -0.36 | inactive: -0.351
40 | CC(Cc1c[nH]c2ccccc12)(NC(=O)OC1C2CC3CC(C2)CC1C3)C(=O)N[C@H]1CCCC[C@@H]1O (stereo not given in full) | inactive: -0.85 | inactive: -1.03 | inactive: -0.599
41 | Nc1nc(O)c2sc(=O)n([C@@H]3O[C@H](CO)C(O)C3O)c2n1 (stereo not given in full) [Isatoribine] | inactive: -1 | inactive: 0.841 | active: 9.33
42 | CC#CCn1c(N2CCC[C@H](N)C2)nc2c1c(=O)n(Cc1nc(C)c3ccccc3n1)c(=O)n2C |  | inactive: -0.536 | 
43 | CC#CCn1c(N2CCC[C@H](N)C2)nc2c1c(=O)n(Cc1nc(C)c3ccccc3n1)c(=O)n2C [Linagliptin (BI-1356)] | inactive: 1.74 |  | inactive: -1.08
44 | COc1ccccc1N1CCN(CC(C(=O)NC(C)(C)C)c2ccccc2)CC1 (stereo not given) | inactive: -0.452 | inactive: 0.234 | inactive: 2.09
45 | Cc1cn(-c2cc(NC(=O)c3ccc(C)c(Nc4nccc(-c5cnccn5)n4)c3)cc(C(F)(F)F)c2)cn1 [Radotinib] | inactive: -0.919 | inactive: 0.492 | inactive: 1.9
46 | CCOC(=O)[C@H](CCc1ccccc1)N[C@@H](C)C(=O)N1C(=O)N(C)C[C@H]1C(=O)O [imidapril hydrochloride, Ark] | inactive: -2.47 | inactive: -1.51 | inactive: 1.06
47 | CC(C)=CCC/C(C)=C/C=C/C(C)=C/C=C/C(C)=C/C=C/C=C(C)/C=C/C=C(C)/C=C/C=C(\C)CCC=C(C)C [Lycopene] | inactive: 0.759 | inactive: -0.816 | active: 6.51
48 | CCOC(=O)C1=C(COCCOCCN)NC(C)=C(C(=O)OC)C1c1cccc(Cl)c1Cl (stereo not given) | inactive: -0.828 | inactive: -0.426 | inactive: 1.53
49 | O=C1c2ccccc2C(=O)C1c1ccccc1 [Phenindione] |  | inactive: 0.595 | 
50 | O=C1c2ccccc2C(=O)C1c1ccccc1 | inactive: -1.67 |  | inactive: -0.688
51 | N#Cc1ccc(Oc2ccc3c(c2)COB3O)cc1 | inactive: 0.617 | inactive: -1.59 | inactive: 0.105
52 | CC1=CCC[C@H]2[C@](C)(Cc3cc(O)ccc3O)[C@@H](C)CC[C@]12C [Avarol] | inactive: 0.925 | inactive: 0.89 | inactive: 1.52
53 | COc1ccc2c(c1)-c1nc(-c3ccncc3)[nH]c1CCC2 | inactive: -2.05 | inactive: -1.15 | inactive: 2.32
54 | CC(C)[C@H]1C(=O)N[C@@H](CCCNC(=N)N)C(=O)NCC(=O)N[C@@H](CC(=O)O)C(=O)N[C@H](Cc2ccccc2)C(=O)N1C [Cilengitide] | inactive: -0.832 | inactive: -2.65 | inactive: -2.92
55 | COc1ccccc1N1CCN(C(=O)c2ccc(CN3CCCCC3)cc2)CC1 | inactive: -0.604 | inactive: -0.817 | inactive: -0.128
56 | CCOCN1C2=C(C(=O)Nc3ccccc3F)C(=O)CCN2c2ccc(F)cc21 | inactive: 0.323 | inactive: -0.0838 | inactive: -1.54
